Results reported in doi:10.1101/293530.
Results are given in words; binding and its absence hold for the method and conditions named. Binding seen in cells or lysates may run through a third protein.

Chains of the proteins cited; added tags and fusions are not shown. Lines headed by an entry give the natural chain unless they say otherwise; changes in a name come on top. A line that says so, or that is headed by a name, gives the form on record, which may keep a tag or linker.
CD95-mGFP and CD95-mCherry (P25445, form named): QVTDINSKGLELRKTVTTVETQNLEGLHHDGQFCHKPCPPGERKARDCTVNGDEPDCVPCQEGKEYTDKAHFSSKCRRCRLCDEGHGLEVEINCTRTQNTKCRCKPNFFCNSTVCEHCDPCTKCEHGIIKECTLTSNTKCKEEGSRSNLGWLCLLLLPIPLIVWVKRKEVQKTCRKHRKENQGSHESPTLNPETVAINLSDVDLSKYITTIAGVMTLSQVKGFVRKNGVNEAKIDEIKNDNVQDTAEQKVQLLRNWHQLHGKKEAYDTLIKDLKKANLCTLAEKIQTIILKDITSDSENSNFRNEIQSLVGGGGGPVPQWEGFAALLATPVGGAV

Target: CD95-mGFP and CD95-mCherry (human) (UniProt P25445)
Experiment: FRET or BRET

binding: no binding
Substance: CD95-mGFP and CD95-mCherry (from UniProt P25445 26-335) (receptor)
